Reference: PubChem BioAssay AID686943 (Drosophila RNAi Screening Center, 2013)
The deposit covers about 23,000 reagents; this is a random part of those with a known target gene and a result. 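Extra replicates exist only for a retested subset of genes; insulin dose and duration not given; both raised and lowered dpERK matter.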 A plus sign joins genes that one reagent is predicted to hit. Further read-outs or replicates are left out here. Reagent sequences are not shown. Not given: the amount of reagent, the time to read-out.

Assay: 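Search across the genome for regulators of signalling from receptor tyrosine kinase to ERK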 (primary screen)
Cell system: Drosophila S2R+ haemocyte-like cells expressing YFP-tagged ERK (Rolled)
Reagents: long dsRNA against Drosophila genes
Treatment: insulin stimulation versus unstimulated cells; dose and duration not given
Read-out: 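Per-plate z-scores of phospho-ERK immunostaining normalised to YFP-tagged ERK, measured with and without insulin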
Reading the numbers: replicate 1, z-score of dpERK with insulin and replicate 2, z-score of dpERK with insulin: higher = more active ERK per ERK-YFP after insulin

gene knocked down | amplicon | replicate 1, z-score of dpERK with insulin | replicate 2, z-score of dpERK with insulin
Cyp311a1 (GeneID 32170) | DRSC20239 | 1.34 | 0.94
CG15784 (GeneID 31461) | DRSC18090 | -0.24 | -0.06
CG31784 (GeneID 318939) | DRSC01574 | -1.19 | -0.12
B-H2 (GeneID 32723) | DRSC19335 | -5.08 | -1.39
CG14109 (GeneID 39512) | DRSC10112 | -0.13 | -0.21
Nhe2 (GeneID 35376) | DRSC03172 | -0.48 | 0.45
Nhe2 (GeneID 35376) | DRSC03377 | -1.74 | -0.93
CG31810 (GeneID 318955) | DRSC01560 | 0.61 | -0.01
CG2750 (GeneID 32179) | DRSC19867 | 0.26 | -0.34
Arl6IP1 (GeneID 42027) | DRSC14231 | -0.93 | -1.39
Cyt-c1 (GeneID 38612) | DRSC10447 | 0.56 | -0.24
CG15147 (GeneID 35069) | DRSC02447 | 0.1 | 0.39
CG15147 (GeneID 35069) | DRSC02448 | -1.04 | -0.32
Nubpl (GeneID 35452) | DRSC03725 | 0.11 | -0.16
GCC88 (GeneID 41350) | DRSC14264 | 0.11 | 0.09
eater (GeneID 43262) | DRSC15969 | 0.19 | 0.44
eater (GeneID 43262) | DRSC22254 | 0.8 | 0.6
Pp1-87B (GeneID 49260) | DRSC16794 | -4.18 | -4.21
Cyp6a19 (GeneID 36662) | DRSC07379 | 1.23 | -0.76
CG4741 (GeneID 37939) | DRSC04228 | -0.16 | -0.18
CG4741 (GeneID 37939) | DRSC04485 | -0.13 | 0.1
CG12490 (GeneID 37623) | DRSC04123 | 0.28 | -0.28
Drgx (GeneID 5740176) | DRSC00278 | 0.19 | 0.32
Drgx (GeneID 5740176) | DRSC00537 | 0.04 | -0.53
pyr (GeneID 36255) | DRSC06319 | 1.2 | 1.22
pyr (GeneID 36255) | DRSC22520 | 0.72 | -0.44
Glys (GeneID 41823) | DRSC16130 | -0.3 | 0.16
CG31601 (GeneID 318835) | DRSC03678 | -0.37 | -1.05
Rab9 (GeneID 35221) | DRSC03281 | 0.87 | 1.21
pcs (GeneID 36674) | DRSC07042 | 0.48 | 0.2
Ugt36A1 + CG15418 | DRSC00432 | 0 | -0.16
CG42535 (GeneID 8674023) | DRSC09041 | 0.19 | 0.22
RpL15 (GeneID 3354918) | DRSC20963 | -2.76 | 2.55
bdg (GeneID 36747) | DRSC07136 | -3.23 | -1.85
CG15097 (GeneID 37172) | DRSC06526 | 0.87 | -0.32
CG14864 (GeneID 41846) | DRSC14987 | -0.21 | -0.74
CG8837 (GeneID 33545) | DRSC00711 | 0.47 | -0.27
lectin-37Da (GeneID 3346222) | DRSC03278 | -0.06 | -0.78
lectin-37Da (GeneID 3346222) | DRSC22729 | -0.24 | -0.33
CG17196 (GeneID 43112) | DRSC15189 | -0.1 | -0.83
CG42594 (GeneID 8674091) | DRSC18053 | -4.21 | -1.99
CG42594 (GeneID 8674091) | DRSC18408 | 0.47 | 0.76
ppk21 (GeneID 43485) | DRSC14466 | -0.45 | -0.25
CG34011 (GeneID 3885619) | DRSC00888 | -0.72 | -0.78
CG14502 (GeneID 37092) | DRSC06473 | 0.44 | 0.68
slp2 (GeneID 33608) | DRSC00836 | 0.19 | 0.1
Gbeta13F (GeneID 32544) | DRSC20247 | -0.15 | 1.39
Cht7 (GeneID 38370) | DRSC08538 | 0.32 | 1.54
Cht7 (GeneID 38370) | DRSC21783 | 0.51 | -0.17
CG13339 (GeneID 36528) | DRSC06373 | 0.14 | -0.03
GstD5 (GeneID 48338) | DRSC16686 | 0.86 | 0.34
Shawn + Tyler | DRSC19564 | 0.47 | -0.18
Shawn + Tyler | DRSC19565 | -0.91 | 0.67
CG13994 (GeneID 33853) | DRSC02326 | 0.09 | 0.28
NK7.1 (GeneID 41747) | DRSC16755 | -0.58 | -0.35
tplus3a + tplus3b | DRSC03687 | -1.98 | -1.63
axed (GeneID 38741) | DRSC08833 | -0.34 | 0.2
axed (GeneID 38741) | DRSC10982 | 0.02 | 0.29
CG9436 (GeneID 35586) | DRSC05005 | 0.35 | 0.32
Menl-2 + Menl-1 | DRSC07469 | 1.36 | 0.35
Menl-2 + Menl-1 | DRSC07470 | 0.94 | 0.06
Reph (GeneID 47399) | DRSC00634 | 0.25 | 0.58
Reph (GeneID 47399) | DRSC22031 | -0.5 | -0.57
LysE (GeneID 38128) | DRSC08675 | 0.96 | 0.78
CG4306 (GeneID 40017) | DRSC10409 | 0.17 | -0.62
Sting (GeneID 36016) | DRSC06615 | 1.4 | 1.74
CG13297 (GeneID 38711) | DRSC09971 | -0.07 | -0.42
CG32633 (GeneID 326225) | DRSC18987 | 0.01 | -0.27
CG42525 (GeneID 8674097) | DRSC08026 | -0.16 | 0.41
Lipt1 + CG42837 | DRSC07183 | -0.13 | -0.19
Rfx (GeneID 41266) | DRSC16820 | -0.4 | -0.11
Cyp4p3 (GeneID 35948) | DRSC07374 | 0.54 | 0.93
CG32795 (GeneID 31270) | DRSC18609 | 1.3 | 0.21
CG32795 (GeneID 31270) | DRSC18610 | -0.04 | -0.34

Copied from the entries so far for reference:
gene knocked down | amplicon | replicate 1, z-score of dpERK with insulin | replicate 2, z-score of dpERK with insulin
axed (GeneID 38741) | DRSC10982 | 0.02 | 0.29
CG9436 (GeneID 35586) | DRSC05005 | 0.35 | 0.32
Menl-2 + Menl-1 | DRSC07469 | 1.36 | 0.35
Menl-2 + Menl-1 | DRSC07470 | 0.94 | 0.06
Reph (GeneID 47399) | DRSC00634 | 0.25 | 0.58
Reph (GeneID 47399) | DRSC22031 | -0.5 | -0.57
LysE (GeneID 38128) | DRSC08675 | 0.96 | 0.78
CG4306 (GeneID 40017) | DRSC10409 | 0.17 | -0.62
Sting (GeneID 36016) | DRSC06615 | 1.4 | 1.74
CG13297 (GeneID 38711) | DRSC09971 | -0.07 | -0.42
